{
  "source": "patent US6887846B2",
  "about": "“Antimicrobial amino acid sequences derived from alpha-melanocyte-stimulating hormone” (priority 1999, dated 2005)",
  "key": {"S. aureus (ATCC 29213)": {"test_system": "S. aureus (ATCC 29213)", "experiment": "Trial of melanocortin peptides on S. aureus viability (colony formation)", "assay_type": "cell-based", "conditions": "2 hours at 37° C.", "procedure": "S. aureus (ATCC 29213) and C. albicans (clinical isolate) were obtained from the collection of the Department of Microbiology, Ospedale Maggiore di Milano. C. albicans were maintained on Sabouraud'[…] periodically transferred to Sabouraud's agar plates and incubated for 48 hours at 28° C. To prepare stationary growth phase yeast, a colony was taken from the agar plate and transferred into 30 ml Sabouraud-dextrose broth and incubated for 72 hours at 32° C. Cells were centrifuged at 1000×g for 10 minutes and the pellet was washed twice with distilled water. Cells were counted and suspended in Hank's balanced salt solution (“HBSS”) to the desired concentration. Viability, determined by the exclusion of 0.01% methylene blue, remained >98%. […] Cells were then washed in cold distilled water and diluted with HBSS to a concentration of 100 organisms/ml. One ml aliquots were dispensed on blood agar plates and incubated for 24 hours at 37° C. Organism viability was estimated from the number of colonies formed."}, "[1]": {"test_system": "C. albicans (clinical isolate)", "experiment": "Trial of melanocortin peptides on C. albicans viability (colony formation)", "assay_type": "cell-based", "procedure": "S. aureus (ATCC 29213) and C. albicans (clinical isolate) were obtained from the collection of the Department of Microbiology, Ospedale Maggiore di Milano. C. albicans were maintained on Sabouraud'[…] periodically transferred to Sabouraud's agar plates and incubated for 48 hours at 28° C. To prepare stationary growth phase yeast, a colony was taken from the agar plate and transferred into 30 ml Sabouraud-dextrose broth and incubated for 72 hours at 32° C. Cells were centrifuged at 1000×g for 10 minutes and the pellet was washed twice with distilled water. Cells were counted and suspended in Hank's balanced salt solution (“HBSS”) to the desired concentration. […] Cells were then washed in cold distilled water and diluted with HBSS to a concentration of 100 organisms/ml. One ml aliquots were dispensed on blood agar plates and incubated for 48 hours at 37° C. Organism viability was estimated from the number of colonies formed. […] There were at least six replicates for each concentration of peptide. […] The reaction was stopped after 3 minutes by the addition of ice cold ethanol. cAMP was measured in duplicate using a commercial enzyme immunoassay (EIA) kit (Amersham, United Kingdom) after extraction via the liquid-phase method according to manufacturer's instructions."}},
  "note": "For part of these data: At least one compound was matched to its structure with a doubt left. Some results were stated once for a whole list of compounds, not compound by compound.",
  "data": [
    {"compound": "NH2-Lys-Pro-Val-AcCys-CysAc-Val-Pro-Lys-NH2 (VPKCCKPV; acetylated cysteines disulfide dimer, C-terminal amide; Designed polypeptide with anti-inflammatory, anti-bacterial, anti-fungal and antipyretic properties.) [KPV dimer]", "values": [
      {"measurement": "peptide concentrations with significant (p<0.01) inhibition of S. aureus colony formation", "setting": "S. aureus (ATCC 29213)", "result": "10^−2 to 10^−4 M"},
      {"measurement": "peptide concentrations with significant inhibitory influence on C. albicans CFU (p<0.01 vs control)", "setting": "[1]; 2 hours at 37° C.", "result": "10^−12 to 10^−4 M"}
    ]},
    {"compound": "C=C[C@@]1(C)CC(=O)[C@]2(O)[C@@]3(C)[C@@H](O)CCC(C)(C)[C@@H]3[C@H](O)[C@H](OC(C)=O)[C@@]2(C)O1", "note": "[forskolin, reference compound]", "values": [
      {"measurement": "C. albicans CFU relative to control", "setting": "[1]; 10^−6M, p<0.01", "result": "markedly inhibited C. albicans CFU relative to control"}
    ]}
  ]
}
